The list shows a part of the results.
Assays:
Experiment in all cases: log2 fold change, soluble protein after heating vs DMSO (PISA); higher = thermal stabilisation; K562 cells, 10 uM, 30 min; active = over 0.2 and 3.5 SD of the protein, either way, in both replicates (recomputed)
[1] = compound: COC1=CC=C(C=C1)CN2C=CC3=C2C=C(C=C3)C(=O)NO
Summary of the method: (§1)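 Values are thermal stability changes relative to control samples and are taken from duplicates. They are stated as log2 fold changes. Before quantification by TMTpro 16plex LC-MS/MS with equalised channel sums, K562 cells at 2×10^6 cells/mL were treated with 10 μM compound for 30 min, heated in aliquots for 3 min across 48°C-58°C, pooled, extracted in PBS with 0.5% NP-40 at 4°C, and centrifuged at 21,000xg for 90 min to give the soluble supernatant.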

By UniProt entry, the sequences of proteins in these tests, tags left out. Where a name states a change or a piece, a line headed by the entry shows the natural chain unless it says otherwise.
UniProt Q7L775: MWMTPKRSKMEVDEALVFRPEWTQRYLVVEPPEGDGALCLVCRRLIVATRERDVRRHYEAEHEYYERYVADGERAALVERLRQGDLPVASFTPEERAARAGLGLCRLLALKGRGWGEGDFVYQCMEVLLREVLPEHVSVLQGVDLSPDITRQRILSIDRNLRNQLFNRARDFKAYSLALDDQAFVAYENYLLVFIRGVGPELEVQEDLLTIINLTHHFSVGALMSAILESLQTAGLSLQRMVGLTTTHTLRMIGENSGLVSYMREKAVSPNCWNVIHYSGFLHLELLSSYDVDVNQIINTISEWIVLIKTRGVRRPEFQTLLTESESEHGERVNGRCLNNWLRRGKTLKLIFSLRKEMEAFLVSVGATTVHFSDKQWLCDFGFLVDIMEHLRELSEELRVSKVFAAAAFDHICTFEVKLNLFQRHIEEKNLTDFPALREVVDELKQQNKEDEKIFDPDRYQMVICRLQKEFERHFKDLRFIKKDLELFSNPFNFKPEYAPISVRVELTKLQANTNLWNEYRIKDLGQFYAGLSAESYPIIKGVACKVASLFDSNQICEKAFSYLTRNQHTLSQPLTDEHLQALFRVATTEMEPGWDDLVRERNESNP
UniProt P16930: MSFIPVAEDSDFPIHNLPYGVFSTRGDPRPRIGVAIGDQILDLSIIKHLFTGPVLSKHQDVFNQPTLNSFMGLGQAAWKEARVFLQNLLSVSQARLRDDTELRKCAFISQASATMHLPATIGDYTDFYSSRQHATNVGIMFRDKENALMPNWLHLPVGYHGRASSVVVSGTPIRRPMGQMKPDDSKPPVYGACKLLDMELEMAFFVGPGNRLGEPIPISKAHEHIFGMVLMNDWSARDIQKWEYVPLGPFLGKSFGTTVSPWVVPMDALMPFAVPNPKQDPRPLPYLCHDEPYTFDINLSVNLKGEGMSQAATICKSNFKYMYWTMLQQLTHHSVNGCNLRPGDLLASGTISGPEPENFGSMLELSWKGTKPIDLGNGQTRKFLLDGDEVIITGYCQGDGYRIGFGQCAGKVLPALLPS
UniProt Q9UNN5: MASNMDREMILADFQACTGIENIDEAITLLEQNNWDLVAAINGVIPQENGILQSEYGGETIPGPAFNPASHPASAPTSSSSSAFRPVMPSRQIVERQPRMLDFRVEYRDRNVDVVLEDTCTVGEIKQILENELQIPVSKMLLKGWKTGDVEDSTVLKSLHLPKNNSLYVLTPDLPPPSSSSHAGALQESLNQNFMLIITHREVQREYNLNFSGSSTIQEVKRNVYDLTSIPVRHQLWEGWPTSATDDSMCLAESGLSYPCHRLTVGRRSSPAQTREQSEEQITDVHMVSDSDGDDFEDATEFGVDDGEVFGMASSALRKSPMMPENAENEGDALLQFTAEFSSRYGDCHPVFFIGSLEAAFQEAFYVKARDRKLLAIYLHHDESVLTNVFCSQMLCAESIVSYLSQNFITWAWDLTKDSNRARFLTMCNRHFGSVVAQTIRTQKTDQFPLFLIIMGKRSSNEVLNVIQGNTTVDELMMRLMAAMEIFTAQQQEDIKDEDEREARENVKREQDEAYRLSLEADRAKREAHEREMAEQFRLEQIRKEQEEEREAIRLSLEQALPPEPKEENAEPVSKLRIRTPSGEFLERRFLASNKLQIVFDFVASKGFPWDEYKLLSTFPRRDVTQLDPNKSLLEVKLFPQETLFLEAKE
UniProt Q01844: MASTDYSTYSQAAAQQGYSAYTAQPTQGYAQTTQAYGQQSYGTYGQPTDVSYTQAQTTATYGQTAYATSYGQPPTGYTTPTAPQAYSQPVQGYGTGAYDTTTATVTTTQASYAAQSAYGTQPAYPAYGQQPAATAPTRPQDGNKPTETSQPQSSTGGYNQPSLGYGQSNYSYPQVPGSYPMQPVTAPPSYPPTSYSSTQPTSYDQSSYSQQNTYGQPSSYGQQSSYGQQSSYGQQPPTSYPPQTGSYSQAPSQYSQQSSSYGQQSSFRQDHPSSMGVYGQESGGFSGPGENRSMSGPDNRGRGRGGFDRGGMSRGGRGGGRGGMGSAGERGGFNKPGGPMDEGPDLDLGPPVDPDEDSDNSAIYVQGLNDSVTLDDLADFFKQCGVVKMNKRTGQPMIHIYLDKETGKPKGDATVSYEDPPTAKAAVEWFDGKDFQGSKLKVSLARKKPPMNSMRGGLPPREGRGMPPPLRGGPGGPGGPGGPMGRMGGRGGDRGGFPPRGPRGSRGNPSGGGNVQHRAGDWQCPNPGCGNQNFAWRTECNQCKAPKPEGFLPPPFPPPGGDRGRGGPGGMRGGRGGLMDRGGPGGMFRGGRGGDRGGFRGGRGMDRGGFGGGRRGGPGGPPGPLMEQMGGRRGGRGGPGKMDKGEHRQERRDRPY
UniProt P10768: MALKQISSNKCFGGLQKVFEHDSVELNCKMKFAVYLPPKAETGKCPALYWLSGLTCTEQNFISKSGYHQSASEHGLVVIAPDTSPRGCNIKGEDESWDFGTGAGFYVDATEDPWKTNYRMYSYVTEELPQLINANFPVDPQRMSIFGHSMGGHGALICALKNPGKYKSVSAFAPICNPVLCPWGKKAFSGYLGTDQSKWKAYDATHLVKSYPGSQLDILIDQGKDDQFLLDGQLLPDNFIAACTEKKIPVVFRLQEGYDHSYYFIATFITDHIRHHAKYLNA
UniProt Q7Z2K6: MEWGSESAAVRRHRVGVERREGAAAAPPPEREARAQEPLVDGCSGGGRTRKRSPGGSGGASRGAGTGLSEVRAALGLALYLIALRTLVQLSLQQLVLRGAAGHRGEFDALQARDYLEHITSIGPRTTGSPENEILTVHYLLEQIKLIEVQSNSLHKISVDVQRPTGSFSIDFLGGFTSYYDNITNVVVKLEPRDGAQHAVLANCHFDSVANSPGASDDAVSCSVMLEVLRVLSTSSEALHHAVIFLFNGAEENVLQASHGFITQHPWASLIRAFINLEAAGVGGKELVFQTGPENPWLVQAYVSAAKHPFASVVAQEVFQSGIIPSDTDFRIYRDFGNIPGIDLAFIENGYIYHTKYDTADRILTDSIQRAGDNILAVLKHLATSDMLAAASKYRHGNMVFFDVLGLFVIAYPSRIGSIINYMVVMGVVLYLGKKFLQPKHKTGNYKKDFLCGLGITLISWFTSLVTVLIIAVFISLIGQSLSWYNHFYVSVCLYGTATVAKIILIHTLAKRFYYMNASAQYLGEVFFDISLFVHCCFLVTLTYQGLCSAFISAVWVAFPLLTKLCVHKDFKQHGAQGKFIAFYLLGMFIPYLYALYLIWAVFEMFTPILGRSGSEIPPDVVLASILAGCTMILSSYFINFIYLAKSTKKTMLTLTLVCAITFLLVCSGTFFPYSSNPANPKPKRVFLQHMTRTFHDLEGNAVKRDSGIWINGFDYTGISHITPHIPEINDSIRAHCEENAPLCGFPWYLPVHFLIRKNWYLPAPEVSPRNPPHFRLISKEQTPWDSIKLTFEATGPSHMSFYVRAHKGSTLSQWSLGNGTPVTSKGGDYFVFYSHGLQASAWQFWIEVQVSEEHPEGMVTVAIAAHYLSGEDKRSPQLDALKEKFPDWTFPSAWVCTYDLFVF
UniProt Q9Y6I3: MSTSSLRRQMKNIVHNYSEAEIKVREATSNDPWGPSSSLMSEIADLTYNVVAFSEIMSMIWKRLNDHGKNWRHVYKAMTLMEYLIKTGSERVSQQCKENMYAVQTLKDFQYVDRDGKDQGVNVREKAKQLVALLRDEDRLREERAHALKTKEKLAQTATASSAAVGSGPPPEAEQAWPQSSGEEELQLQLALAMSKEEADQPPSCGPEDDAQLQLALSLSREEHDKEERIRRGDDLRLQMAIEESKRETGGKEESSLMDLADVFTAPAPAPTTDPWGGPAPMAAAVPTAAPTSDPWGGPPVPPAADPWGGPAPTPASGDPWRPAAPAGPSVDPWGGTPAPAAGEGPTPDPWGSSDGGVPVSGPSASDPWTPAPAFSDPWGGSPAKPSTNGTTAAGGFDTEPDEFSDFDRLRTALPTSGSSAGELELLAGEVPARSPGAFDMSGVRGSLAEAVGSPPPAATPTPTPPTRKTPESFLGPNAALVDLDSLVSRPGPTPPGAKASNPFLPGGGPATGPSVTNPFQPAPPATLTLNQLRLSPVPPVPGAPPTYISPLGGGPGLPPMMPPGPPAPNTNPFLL
UniProt Q96DZ1: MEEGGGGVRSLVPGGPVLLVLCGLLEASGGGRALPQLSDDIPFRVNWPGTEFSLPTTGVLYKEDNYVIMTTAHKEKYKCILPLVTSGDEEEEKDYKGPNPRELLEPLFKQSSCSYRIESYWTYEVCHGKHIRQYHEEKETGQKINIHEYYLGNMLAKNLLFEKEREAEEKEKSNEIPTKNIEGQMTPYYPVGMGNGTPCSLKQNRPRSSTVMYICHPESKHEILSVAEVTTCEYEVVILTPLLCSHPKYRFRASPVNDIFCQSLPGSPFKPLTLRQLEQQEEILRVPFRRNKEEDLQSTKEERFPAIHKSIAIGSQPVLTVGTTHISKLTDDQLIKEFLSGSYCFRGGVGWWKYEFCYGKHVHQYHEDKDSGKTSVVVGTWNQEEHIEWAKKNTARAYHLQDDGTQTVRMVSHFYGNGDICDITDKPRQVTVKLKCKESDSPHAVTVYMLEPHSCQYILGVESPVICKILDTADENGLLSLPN
UniProt O95208: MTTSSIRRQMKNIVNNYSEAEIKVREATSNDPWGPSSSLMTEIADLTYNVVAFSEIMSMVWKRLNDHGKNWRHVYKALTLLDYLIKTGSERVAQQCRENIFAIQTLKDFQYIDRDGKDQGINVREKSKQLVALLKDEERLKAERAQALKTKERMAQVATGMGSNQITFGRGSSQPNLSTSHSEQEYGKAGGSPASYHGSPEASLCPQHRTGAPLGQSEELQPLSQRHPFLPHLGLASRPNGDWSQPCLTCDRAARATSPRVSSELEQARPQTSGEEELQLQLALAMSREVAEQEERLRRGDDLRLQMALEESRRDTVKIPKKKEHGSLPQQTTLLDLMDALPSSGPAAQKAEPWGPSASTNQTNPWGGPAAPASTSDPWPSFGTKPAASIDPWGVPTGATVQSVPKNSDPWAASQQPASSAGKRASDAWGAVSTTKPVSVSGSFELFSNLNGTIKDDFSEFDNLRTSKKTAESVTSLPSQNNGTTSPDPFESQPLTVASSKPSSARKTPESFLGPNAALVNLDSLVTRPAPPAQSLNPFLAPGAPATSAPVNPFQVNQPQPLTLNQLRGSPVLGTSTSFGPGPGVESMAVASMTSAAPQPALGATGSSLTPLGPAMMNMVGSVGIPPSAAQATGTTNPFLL
UniProt Q9BS26: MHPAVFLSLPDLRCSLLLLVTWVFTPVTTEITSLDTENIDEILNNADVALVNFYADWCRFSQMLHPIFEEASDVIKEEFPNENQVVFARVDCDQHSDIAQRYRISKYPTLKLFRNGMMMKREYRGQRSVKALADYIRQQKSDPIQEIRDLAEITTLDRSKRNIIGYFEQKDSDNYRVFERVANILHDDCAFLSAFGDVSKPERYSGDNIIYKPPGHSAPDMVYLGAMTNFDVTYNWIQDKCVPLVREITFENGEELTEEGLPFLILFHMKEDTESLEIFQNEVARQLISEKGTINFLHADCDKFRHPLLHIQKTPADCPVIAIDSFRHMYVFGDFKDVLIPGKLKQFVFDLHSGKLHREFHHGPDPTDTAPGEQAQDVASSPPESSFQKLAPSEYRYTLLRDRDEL
UniProt P42566: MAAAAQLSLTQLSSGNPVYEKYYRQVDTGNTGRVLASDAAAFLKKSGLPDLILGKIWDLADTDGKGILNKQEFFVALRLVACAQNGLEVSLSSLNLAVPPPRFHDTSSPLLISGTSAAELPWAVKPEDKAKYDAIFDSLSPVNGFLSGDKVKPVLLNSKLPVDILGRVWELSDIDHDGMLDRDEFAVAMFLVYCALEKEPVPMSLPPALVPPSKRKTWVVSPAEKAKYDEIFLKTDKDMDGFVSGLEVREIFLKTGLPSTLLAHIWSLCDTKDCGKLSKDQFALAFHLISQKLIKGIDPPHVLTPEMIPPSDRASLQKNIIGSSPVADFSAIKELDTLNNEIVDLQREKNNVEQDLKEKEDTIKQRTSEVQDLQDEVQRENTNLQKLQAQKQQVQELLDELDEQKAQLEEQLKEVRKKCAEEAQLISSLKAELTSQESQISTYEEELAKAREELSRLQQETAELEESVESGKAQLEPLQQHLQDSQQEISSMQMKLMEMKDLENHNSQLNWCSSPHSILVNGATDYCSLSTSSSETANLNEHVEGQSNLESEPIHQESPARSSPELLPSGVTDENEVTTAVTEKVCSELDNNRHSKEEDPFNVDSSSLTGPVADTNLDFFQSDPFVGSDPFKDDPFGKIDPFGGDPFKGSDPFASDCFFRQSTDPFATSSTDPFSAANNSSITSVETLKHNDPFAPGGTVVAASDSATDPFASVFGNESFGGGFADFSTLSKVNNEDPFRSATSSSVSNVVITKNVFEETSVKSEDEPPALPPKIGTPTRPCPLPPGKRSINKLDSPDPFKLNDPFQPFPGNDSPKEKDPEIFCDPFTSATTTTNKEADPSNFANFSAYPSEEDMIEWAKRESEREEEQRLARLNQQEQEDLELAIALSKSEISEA

[2] = compound: CON(C)C(=O)N1N=C(c2cc(F)ccc2F)S[C@@]1(CCCN)c1ccccc1 [filanesib]
Summary of the method: as §1

[3] = compound: CO[C@H]1C[C@@H]2CC[C@@H](C)[C@@](O)(O2)C(=O)C(=O)N2CCCC[C@H]2C(=O)O[C@H]([C@H](C)C[C@@H]2CC[C@H](n3cnnn3)[C@H](OC)C2)CC(=O)[C@H](C)/C=C(\C)[C@@H](O)[C@@H](OC)C(=O)[C@H](C)C[C@H](C)/C=C/C=C/C=C/1C [zotarolimus]
Summary of the method: as §1

[4] = compound: COc1cc(C(=O)O)ccc1NC(=O)[C@@H]1N[C@@H](CC(C)(C)C)[C@](C#N)(c2ccc(Cl)cc2F)[C@H]1c1cccc(Cl)c1F [idasanutlin]
Summary of the method: as §1

[5] = compound: COc1cc(Nc2ncc3c(n2)-c2ccc(Cl)cc2C(c2c(F)cccc2OC)=NC3)ccc1C(=O)O [alisertib]
Summary of the method: as §1

[6] = compound: COc1cc2nc(-c3cc(F)ccc3O)nc(N[C@@H]3CNC[C@H]3C(C)(C)O)c2cc1OC
Summary of the method: as §1

[7] = compound: COc1cc2ncnc(Nc3ccc(F)c(Cl)c3)c2cc1OCCCN1CCOCC1 [gefitinib]
Summary of the method: as §1

[8] = compound: COc1cccc2cc(-c3nc([C@H]4CC[C@H](C(=O)O)CC4)n4ncnc(N)c34)[nH]c12
Summary of the method: as §1

[9] = compound: CS(=O)(=O)CCNCc1ccc(-c2ccc3ncnc(Nc4ccc(OCc5cccc(F)c5)c(Cl)c4)c3c2)o1 [lapatinib]
Summary of the method: as §1

[10] = compound: CS(=O)(=O)N1CCN(Cc2cc3nc(-c4cccc5[nH]ncc45)nc(N4CCOCC4)c3s2)CC1 [pictilisib]
Summary of the method: as §1

[11] = compound: CS(=O)(=O)c1ccc(-c2cnc(N)c(C(=O)Nc3ccccc3)n2)cc1
Summary of the method: as §1

[12] = compound: C[C@@H](Oc1cc(-c2cnn(C3CCNCC3)c2)cnc1N)c1c(Cl)ccc(F)c1Cl [crizotinib]
Summary of the method: as §1

[13] = compound: C[C@@H]1COCCN1C2=NC(=NC(=C2)C3(CC3)S(=O)(=O)C)C4=C5C=CNC5=CC=C4
Summary of the method: as §1

[14] = compound: C[C@H](C1=CC=C(C=C1)C(=O)NC2=C3C=CNC3=NC=C2)N
Summary of the method: as §1

[15] = compound: C[C@H](Nc1ncnc2nc[nH]c12)c1cc2cccc(Cl)c2c(=O)n1-c1ccccc1 [duvelisib]
Summary of the method: as §1

[16] = compound: Cc1cc(Nc2cc(CN3CCOCC3)c3nc(C)c(Cc4ccc(Cl)cc4F)n3n2)n[nH]1 [gandotinib]
Summary of the method: as §1

[17] = compound: Cc1cc(Nc2cc(N3CCN(C)CC3)nc(Sc3ccc(NC(=O)C4CC4)cc3)n2)n[nH]1 [tozasertib]
Summary of the method: as §1

[18] = compound: Cc1cc(SCc2sc(-c3ccc(C(F)(F)F)cc3)nc2C)ccc1OCC(=O)O
Summary of the method: as §1

[19] = compound: Cc1ccc(-n2nc(C(C)(C)C)cc2NC(=O)Nc2ccc(OCCN3CCOCC3)c3ccccc23)cc1 [doramapimod]
Summary of the method: as §1

[20] = compound: Cc1ccc(C(=O)N(CCCN)[C@@H](c2nc3cc(Cl)ccc3c(=O)n2Cc2ccccc2)C(C)C)cc1 [ispinesib]
Summary of the method: as §1

Measured: log2 fold change

FAM192A (UniProt Q9GZU8)
inactive: [1] -0.051 | [2] -0.013 | [3] -0.038 | [4] -0.009 | [5] -0.029 | [6] 0.005 | [7] 0.022 | [8] 0.06 | [9] 0.032 | [10] 0.078 | [11] 0.004 | [12] 0.04 | [13] 0.074 | [14] -0.027 | [15] 0.023 | [16] 0.024 | [17] -0.045 | [18] -0.059 | [19] -0.037 | [20] 0.013

ERCC3 (UniProt P19447)
inactive: [1] -0.426 | [2] 0.094 | [3] 0.1 | [4] 0.029 | [5] 0.254 | [6] 0.166 | [7] 0.125 | [8] -0.14 | [9] 0.07 | [10] -0.15 | [11] 0.1 | [12] 0.148 | [13] -0.186 | [14] 0.042 | [15] 0.117 | [16] 0.06 | [17] -0.094 | [18] 0.017 | [19] 0.041 | [20] -0.005

FAM136A (UniProt Q96C01)
inactive: [1] 0.036 | [2] -0.021 | [3] 0.011 | [4] -0.057 | [5] -0.022 | [6] -0.049 | [7] 0 | [8] 0.002 | [9] -0.019 | [10] 0.05 | [11] -0.029 | [12] 0.112 | [13] 0.127 | [14] -0.087 | [15] 0.077 | [16] -0.052 | [17] 0.024 | [18] -0.028 | [19] 0.013 | [20] 0.029

EXOSC9 isoform 2 (UniProt Q06265)
inactive: [1] 0.004 | [2] 0.053 | [3] -0.006 | [4] -0.007 | [5] -0.045 | [6] -0.005 | [7] -0.022 | [8] 0.016 | [9] 0.008 | [10] 0.009 | [11] 0.039 | [12] 0.039 | [13] -0.085 | [14] -0.003 | [15] 0.007 | [16] -0.013 | [17] -0.032 | [18] -0.049 | [19] -0.014 | [20] -0.044

EPM2AIP1 (UniProt Q7L775)
inactive: [1] -0.026 | [2] 0.004 | [3] 0.003 | [4] -0.048 | [5] -0.132 | [6] 0.046 | [7] 0.014 | [8] 0.026 | [9] -0.033 | [10] 0.053 | [11] 0.026 | [12] 0.007 | [13] 0.015 | [14] -0.041 | [15] 0.063 | [16] 0.001 | [17] 0.016 | [18] 0.046 | [19] 0.005 | [20] -0.034

FAH (UniProt P16930)
inactive: [1] -0.013 | [2] -0.018 | [3] 0.059 | [4] -0.03 | [5] -0.019 | [6] -0.025 | [7] -0.026 | [8] 0.093 | [9] -0.034 | [10] -0.028 | [11] 0.028 | [12] 0.046 | [13] 0.057 | [14] -0.135 | [15] 0.04 | [16] -0.019 | [17] -0.02 | [18] -0.033 | [19] -0.036 | [20] 0.021

FAF1 (UniProt Q9UNN5)
inactive: [1] -0.014 | [2] -0.05 | [3] 0.035 | [4] -0.008 | [5] -0.044 | [6] -0.029 | [7] 0.011 | [8] 0.01 | [9] -0.017 | [10] -0.016 | [11] -0.004 | [12] 0.053 | [13] 0.05 | [14] -0.151 | [15] -0.008 | [16] -0.045 | [17] 0.038 | [18] -0.004 | [19] -0.041 | [20] 0.078

EWSR1 isoform 5 (UniProt Q01844)
inactive: [1] 0.014 | [2] 0.035 | [3] -0.029 | [4] 0.076 | [5] -0.028 | [6] -0.062 | [7] -0.024 | [8] 0.018 | [9] 0.014 | [10] 0.034 | [11] -0.023 | [12] 0.045 | [13] -0.069 | [14] 0.029 | [15] -0.011 | [16] -0.048 | [17] -0.001 | [18] -0.041 | [19] -0.044 | [20] 0.015

ESD (UniProt P10768)
inactive: [1] -0.029 | [2] -0.031 | [3] 0.011 | [4] -0.008 | [5] 0.035 | [6] -0.005 | [7] -0.017 | [8] 0.068 | [9] -0.034 | [10] -0.043 | [11] -0.014 | [12] 0.041 | [13] 0.038 | [14] -0.056 | [15] 0.047 | [16] 0.001 | [17] -0.009 | [18] -0.002 | [19] -0.046 | [20] 0.082

ERMP1 (UniProt Q7Z2K6)
inactive: [1] 0.013 | [2] -0.02 | [3] -0.003 | [4] -0.03 | [5] -0.041 | [6] -0.041 | [7] -0.003 | [8] 0.037 | [9] 0.015 | [10] 0.001 | [11] 0.023 | [12] 0.041 | [13] 0.037 | [14] -0.054 | [15] 0.038 | [16] 0.01 | [17] 0.023 | [18] -0.025 | [19] 0.012 | [20] -0.07

EPN1 (UniProt Q9Y6I3)
inactive: [1] -0.051 | [2] -0.073 | [3] 0.02 | [4] 0.091 | [5] -0.059 | [6] 0 | [7] 0.018 | [8] 0.007 | [9] -0.001 | [10] -0.031 | [11] 0.01 | [12] -0.005 | [13] 0.085 | [14] -0.025 | [15] 0.027 | [16] -0.046 | [17] 0.033 | [18] 0.008 | [19] -0.005 | [20] -0.026

ERLEC1 (UniProt Q96DZ1)
inactive: [1] -0.059 | [2] -0.002 | [3] -0.009 | [4] 0.01 | [5] -0.01 | [6] 0.025 | [7] 0.015 | [8] 0.012 | [9] 0 | [10] 0 | [11] 0.008 | [12] -0.01 | [13] 0.004 | [14] 0.019 | [15] -0.011 | [16] 0.03 | [17] 0.001 | [18] -0.003 | [19] 0.015 | [20] -0.018

Retrieved one by one from the entries so far (two):
FAF1 (UniProt Q9UNN5)
inactive: [1] -0.014 | [2] -0.05 | [3] 0.035 | [4] -0.008 | [5] -0.044 | [6] -0.029 | [7] 0.011 | [8] 0.01 | [9] -0.017 | [10] -0.016 | [11] -0.004 | [12] 0.053 | [13] 0.05 | [14] -0.151 | [15] -0.008 | [16] -0.045 | [17] 0.038 | [18] -0.004 | [19] -0.041 | [20] 0.078

ERMP1 (UniProt Q7Z2K6)
inactive: [1] 0.013 | [2] -0.02 | [3] -0.003 | [4] -0.03 | [5] -0.041 | [6] -0.041 | [7] -0.003 | [8] 0.037 | [9] 0.015 | [10] 0.001 | [11] 0.023 | [12] 0.041 | [13] 0.037 | [14] -0.054 | [15] 0.038 | [16] 0.01 | [17] 0.023 | [18] -0.025 | [19] 0.012 | [20] -0.07

(continued)

EPN2 (UniProt O95208)
inactive: [1] -0.115 | [2] 0 | [3] -0.058 | [4] -0.028 | [5] 0.229 | [6] -0.035 | [7] 0.002 | [8] 0.047 | [9] 0.04 | [10] 0.041 | [11] -0.023 | [12] -0.002 | [13] -0.043 | [14] 0.063 | [15] -0.021 | [16] 0.032 | [17] -0.061 | [18] -0.045 | [19] 0.056 | [20] -0.027

ERP44 (UniProt Q9BS26)
inactive: [1] -0.032 | [2] -0.004 | [3] 0.037 | [4] 0.025 | [5] -0.057 | [6] -0.01 | [7] 0.02 | [8] 0.01 | [9] -0.008 | [10] 0.011 | [11] 0.012 | [12] 0.064 | [13] -0.005 | [14] 0.02 | [15] 0.003 | [16] 0.054 | [17] 0.007 | [18] -0.001 | [19] 0.011 | [20] 0.024

FAM162A (UniProt Q96A26)
inactive: [1] -0.077 | [2] -0.04 | [3] -0.03 | [4] -0.04 | [5] -0.138 | [6] -0.031 | [7] -0.009 | [8] 0.071 | [9] -0.02 | [10] -0.063 | [11] -0.037 | [12] 0.054 | [13] 0.189 | [14] -0.015 | [15] 0.019 | [16] 0.015 | [17] 0.026 | [18] 0.013 | [19] -0.019 | [20] 0.034

EPS15 (UniProt P42566)
inactive: [1] -0.016 | [2] -0.048 | [3] 0.05 | [4] -0.032 | [5] -0.026 | [6] 0.041 | [7] -0.019 | [8] -0.1 | [9] -0.017 | [10] 0.001 | [11] 0.054 | [12] -0.029 | [13] 0.011 | [14] -0.006 | [15] -0.054 | [16] -0.05 | [17] 0.103 | [18] -0.003 | [19] -0.021 | [20] -0.025

Source: the supplement of paper PMC10849652
